Source: patent US12006294B2, “Therapeutic compounds” (REGENTS OF THE UNIVERSITY OF MINNESOTA, priority 2017, dated 2024)
Entries after “also recorded” stand apart in the source; their conditions may differ.

Experiment: Body temperature measurement (hypothermic action of acetaminophen)
Conditions: combination of low dose with acetaminophen, FIG. 10C; acetate

## N=C(N)N/N=C/c1c(Cl)cccc1Cl [BC1-45-1, guanabenz, acetate]
  effect on hypothermic action of acetaminophen (body temperature): does not have any effect on the hypothermic effect of acetaminophen; also recorded: did not have any effect on the hypothermic action of acetaminophen
